The text below walks through data of PMC12288872.

Protein sequences, listed by entry. Tags and fused reporters are not part of them. Lines headed by an entry give the natural chain unless they say otherwise; changes in a name come on top.
UniProt P37231: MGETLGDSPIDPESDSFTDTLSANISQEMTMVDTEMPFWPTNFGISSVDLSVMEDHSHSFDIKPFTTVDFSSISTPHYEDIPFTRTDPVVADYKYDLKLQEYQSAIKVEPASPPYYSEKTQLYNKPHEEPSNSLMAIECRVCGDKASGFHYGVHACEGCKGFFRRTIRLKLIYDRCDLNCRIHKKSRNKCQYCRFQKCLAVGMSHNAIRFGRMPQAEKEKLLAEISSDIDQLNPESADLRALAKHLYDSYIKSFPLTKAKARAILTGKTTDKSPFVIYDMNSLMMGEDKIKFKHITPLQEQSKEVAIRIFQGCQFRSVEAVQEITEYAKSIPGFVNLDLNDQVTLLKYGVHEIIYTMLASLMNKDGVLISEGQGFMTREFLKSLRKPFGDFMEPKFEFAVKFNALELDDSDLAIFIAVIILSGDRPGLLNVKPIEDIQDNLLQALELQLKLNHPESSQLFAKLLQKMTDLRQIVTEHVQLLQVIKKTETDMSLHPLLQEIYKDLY
UniProt P56178: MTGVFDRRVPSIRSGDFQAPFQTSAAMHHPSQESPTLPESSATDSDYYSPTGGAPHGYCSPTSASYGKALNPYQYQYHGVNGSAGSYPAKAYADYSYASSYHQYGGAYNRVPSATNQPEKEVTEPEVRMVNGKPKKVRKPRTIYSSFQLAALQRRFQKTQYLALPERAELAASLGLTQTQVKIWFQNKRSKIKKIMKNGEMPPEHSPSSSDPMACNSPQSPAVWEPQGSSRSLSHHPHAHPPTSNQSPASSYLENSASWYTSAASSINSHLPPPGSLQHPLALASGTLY
UniProt P35548: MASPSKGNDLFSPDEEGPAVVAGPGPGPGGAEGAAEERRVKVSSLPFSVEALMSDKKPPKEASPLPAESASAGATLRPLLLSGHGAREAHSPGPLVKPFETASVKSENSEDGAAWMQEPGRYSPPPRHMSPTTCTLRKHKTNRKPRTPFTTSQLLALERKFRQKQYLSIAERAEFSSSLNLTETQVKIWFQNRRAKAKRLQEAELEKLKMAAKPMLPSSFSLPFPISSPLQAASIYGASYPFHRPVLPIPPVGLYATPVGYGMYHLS
UniProt Q96RN5: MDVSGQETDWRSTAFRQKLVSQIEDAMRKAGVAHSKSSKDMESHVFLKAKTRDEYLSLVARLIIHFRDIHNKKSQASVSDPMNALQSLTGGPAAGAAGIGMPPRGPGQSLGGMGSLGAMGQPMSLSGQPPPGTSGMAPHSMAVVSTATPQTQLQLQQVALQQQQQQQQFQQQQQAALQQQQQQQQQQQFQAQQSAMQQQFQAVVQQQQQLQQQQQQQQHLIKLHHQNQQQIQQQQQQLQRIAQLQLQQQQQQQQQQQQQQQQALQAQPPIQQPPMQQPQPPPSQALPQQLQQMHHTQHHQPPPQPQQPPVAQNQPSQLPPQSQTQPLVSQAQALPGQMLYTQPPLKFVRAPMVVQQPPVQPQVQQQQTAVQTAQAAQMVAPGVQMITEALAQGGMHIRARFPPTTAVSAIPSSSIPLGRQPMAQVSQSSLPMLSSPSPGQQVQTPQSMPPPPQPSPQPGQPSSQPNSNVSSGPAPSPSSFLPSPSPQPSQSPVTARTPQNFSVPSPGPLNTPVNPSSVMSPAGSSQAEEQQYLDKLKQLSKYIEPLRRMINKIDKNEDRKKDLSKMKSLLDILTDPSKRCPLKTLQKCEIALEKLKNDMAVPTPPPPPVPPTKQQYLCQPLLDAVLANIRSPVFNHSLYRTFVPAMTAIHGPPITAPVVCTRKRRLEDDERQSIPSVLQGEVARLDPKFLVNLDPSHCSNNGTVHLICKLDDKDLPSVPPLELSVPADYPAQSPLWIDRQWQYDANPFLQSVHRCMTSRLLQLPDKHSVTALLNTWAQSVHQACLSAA
UniProt Q09472: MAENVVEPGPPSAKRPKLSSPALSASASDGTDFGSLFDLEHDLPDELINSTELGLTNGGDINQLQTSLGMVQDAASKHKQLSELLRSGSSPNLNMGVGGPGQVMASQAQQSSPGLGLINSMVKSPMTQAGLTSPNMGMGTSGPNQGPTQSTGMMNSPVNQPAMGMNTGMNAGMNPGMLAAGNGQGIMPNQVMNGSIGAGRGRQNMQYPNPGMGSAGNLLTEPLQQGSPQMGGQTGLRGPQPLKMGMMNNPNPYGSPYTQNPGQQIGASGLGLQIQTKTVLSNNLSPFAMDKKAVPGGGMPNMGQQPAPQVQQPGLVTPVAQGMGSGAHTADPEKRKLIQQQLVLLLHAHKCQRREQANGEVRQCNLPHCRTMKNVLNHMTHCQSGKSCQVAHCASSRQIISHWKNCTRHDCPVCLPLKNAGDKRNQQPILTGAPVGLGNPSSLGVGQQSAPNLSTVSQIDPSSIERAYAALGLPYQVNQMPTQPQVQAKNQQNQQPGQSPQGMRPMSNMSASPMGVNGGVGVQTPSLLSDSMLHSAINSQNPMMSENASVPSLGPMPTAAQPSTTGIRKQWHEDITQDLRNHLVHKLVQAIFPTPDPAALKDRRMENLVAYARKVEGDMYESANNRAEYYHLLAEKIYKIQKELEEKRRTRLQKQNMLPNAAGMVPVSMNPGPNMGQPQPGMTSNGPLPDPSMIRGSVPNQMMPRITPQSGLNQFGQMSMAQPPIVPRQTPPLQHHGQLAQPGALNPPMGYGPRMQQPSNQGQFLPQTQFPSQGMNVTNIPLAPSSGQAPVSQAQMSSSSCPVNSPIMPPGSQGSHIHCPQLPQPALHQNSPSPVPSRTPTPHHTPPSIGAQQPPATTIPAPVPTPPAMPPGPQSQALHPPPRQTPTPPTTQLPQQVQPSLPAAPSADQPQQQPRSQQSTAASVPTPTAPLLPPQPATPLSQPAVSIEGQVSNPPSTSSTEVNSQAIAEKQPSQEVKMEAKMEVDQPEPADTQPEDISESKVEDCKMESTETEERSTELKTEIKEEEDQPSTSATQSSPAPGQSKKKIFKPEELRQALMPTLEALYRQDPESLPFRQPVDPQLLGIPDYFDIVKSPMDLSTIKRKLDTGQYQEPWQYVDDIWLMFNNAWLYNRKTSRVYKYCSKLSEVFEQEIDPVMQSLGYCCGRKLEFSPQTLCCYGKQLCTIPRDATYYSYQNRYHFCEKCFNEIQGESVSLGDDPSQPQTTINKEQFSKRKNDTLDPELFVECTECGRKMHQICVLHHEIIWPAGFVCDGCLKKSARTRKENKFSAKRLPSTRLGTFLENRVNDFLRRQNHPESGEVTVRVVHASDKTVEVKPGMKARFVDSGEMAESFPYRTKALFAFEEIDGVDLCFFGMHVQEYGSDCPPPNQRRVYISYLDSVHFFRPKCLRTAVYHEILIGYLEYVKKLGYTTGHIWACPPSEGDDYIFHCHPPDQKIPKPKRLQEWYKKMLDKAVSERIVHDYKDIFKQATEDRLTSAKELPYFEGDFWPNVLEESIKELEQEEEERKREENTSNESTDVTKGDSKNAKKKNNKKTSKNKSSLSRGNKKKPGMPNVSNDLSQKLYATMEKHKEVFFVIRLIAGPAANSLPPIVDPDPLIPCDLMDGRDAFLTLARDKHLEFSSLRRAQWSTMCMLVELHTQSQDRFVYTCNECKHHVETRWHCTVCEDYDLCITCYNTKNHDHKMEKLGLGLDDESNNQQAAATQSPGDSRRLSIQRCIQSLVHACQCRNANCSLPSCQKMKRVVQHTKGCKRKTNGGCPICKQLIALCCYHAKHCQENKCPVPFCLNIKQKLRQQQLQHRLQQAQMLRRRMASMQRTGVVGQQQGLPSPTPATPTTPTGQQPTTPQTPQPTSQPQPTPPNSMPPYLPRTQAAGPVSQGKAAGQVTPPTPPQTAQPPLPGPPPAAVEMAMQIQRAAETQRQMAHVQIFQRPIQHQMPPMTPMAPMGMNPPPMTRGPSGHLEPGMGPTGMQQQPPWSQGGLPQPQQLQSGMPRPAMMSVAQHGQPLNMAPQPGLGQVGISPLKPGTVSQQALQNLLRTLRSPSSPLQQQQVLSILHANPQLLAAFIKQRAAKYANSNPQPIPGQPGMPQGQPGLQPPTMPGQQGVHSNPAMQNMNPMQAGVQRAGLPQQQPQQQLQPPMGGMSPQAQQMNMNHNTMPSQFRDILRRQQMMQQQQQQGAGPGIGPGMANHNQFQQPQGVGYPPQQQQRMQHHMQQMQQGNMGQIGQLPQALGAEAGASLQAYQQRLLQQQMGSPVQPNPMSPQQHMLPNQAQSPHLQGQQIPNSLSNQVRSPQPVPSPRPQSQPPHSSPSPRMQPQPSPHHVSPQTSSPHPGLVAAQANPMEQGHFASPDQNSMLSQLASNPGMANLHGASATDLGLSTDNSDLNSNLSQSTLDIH

Results are given in words; binding and its absence hold for the method and conditions named. In cells and extracts the contact can be indirect. Binding calls can cover weak binding; strength is not graded here.

Assay [1] has as its target Peroxisome proliferator-activated receptor gamma (human (endogenous in CT27 TSCs and EVTs derived from them)) (UniProt P37231). The assay is described as follows: co-IP; EVTs (day not stated); endogenous PPARG precipitated with PPARG antibody on Dynabeads Protein A, overnight at 4°C, Pierce IP Lysis Buffer; beads without antibody as control; western blot.
Assay [2] has the same target. The assay is described as follows: co-IP; TSCs at ~80% confluency; endogenous PPARG precipitated with PPARG antibody on Dynabeads Protein A, overnight at 4°C, Pierce IP Lysis Buffer; beads without antibody as control; western blot. In general terms: A western blot detects proteins with antibodies after separation by electrophoresis.
For assay [3] the target is unchanged. The assay is described as follows: co-IP; EVT day 3 cells; endogenous PPARG precipitated with PPARG antibody on Dynabeads Protein A, overnight at 4°C, Pierce IP Lysis Buffer; beads without antibody as control; western blot.

For DLX5 (from UniProt P56178 1-289), the binding entry in assay [1] was “binds”. On to MSX2 (from UniProt P35548 1-267), for which the binding entry in assay [2] is reported as “binds”.

Regarding MED15 (from UniProt Q96RN5 1-788), the binding entry in assay [3] is given as “binds”. On the same count and under the same terms, the result for EP300 (from UniProt Q09472 1-2414) reads “binds”.
